From article PMC8119428
For part of these data: The comparison behind a weaker result is the experiment's own reference, which may not be listed here. For at least one entry, the source does not settle the construct or the ends of the probe. At least one verdict rests on a figure or table, not on a statement of the authors.

By UniProt entry, the sequences of proteins in these tests, tags left out.
UniProt Q01860, whole entry K222D: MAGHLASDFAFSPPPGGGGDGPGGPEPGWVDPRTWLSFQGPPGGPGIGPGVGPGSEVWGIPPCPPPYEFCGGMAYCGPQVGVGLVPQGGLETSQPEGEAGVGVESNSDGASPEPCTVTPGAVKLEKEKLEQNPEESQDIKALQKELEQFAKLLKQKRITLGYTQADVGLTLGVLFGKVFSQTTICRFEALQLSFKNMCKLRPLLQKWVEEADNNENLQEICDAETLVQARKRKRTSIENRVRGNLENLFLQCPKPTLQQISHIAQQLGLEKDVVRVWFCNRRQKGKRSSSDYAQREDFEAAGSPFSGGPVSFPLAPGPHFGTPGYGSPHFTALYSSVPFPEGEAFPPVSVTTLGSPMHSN
UniProt Q01860, whole entry K222A: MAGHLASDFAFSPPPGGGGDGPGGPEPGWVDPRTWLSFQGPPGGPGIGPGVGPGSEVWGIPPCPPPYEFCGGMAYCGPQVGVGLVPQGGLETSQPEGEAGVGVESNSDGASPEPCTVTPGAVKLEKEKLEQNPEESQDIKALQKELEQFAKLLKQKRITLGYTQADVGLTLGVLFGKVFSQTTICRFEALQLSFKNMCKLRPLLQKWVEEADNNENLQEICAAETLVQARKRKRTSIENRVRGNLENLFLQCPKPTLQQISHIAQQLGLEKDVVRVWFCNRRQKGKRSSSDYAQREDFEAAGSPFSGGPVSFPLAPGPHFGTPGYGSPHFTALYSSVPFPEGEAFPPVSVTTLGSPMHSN
UniProt Q01860, whole entry K222R: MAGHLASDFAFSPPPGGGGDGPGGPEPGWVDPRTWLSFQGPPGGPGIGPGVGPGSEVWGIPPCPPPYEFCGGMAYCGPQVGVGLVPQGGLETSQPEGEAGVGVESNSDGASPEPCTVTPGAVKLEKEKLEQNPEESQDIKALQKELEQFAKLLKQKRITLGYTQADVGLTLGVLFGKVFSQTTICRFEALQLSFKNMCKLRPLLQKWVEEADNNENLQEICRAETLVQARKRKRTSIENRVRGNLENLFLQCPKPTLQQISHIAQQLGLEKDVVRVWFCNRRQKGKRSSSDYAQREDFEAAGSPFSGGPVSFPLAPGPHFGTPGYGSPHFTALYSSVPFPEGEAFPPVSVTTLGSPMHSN
UniProt Q01860, whole entry K222F: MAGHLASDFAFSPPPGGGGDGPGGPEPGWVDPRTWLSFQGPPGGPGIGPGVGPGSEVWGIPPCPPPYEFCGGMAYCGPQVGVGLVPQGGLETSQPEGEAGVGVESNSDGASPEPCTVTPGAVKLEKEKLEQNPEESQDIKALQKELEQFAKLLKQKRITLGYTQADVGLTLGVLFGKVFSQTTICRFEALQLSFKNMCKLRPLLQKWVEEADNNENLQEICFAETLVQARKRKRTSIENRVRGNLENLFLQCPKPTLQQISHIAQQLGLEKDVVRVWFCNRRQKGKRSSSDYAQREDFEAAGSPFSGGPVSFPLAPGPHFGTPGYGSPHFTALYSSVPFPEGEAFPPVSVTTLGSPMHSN

How the values were obtained:
Assay in all cases: EMSA
[1] = molecular target: OCT4 K222D (Homo sapiens) (UniProt Q01860); conditions: LightShift EMSA: 20 ul, 1.5 ug His-OCT4, 0.5 ug His-SOX2 where used, 50 nM biotin-dsDNA, 1 ul poly(dI-dC), 1x loading buffer (salt and pH not stated), 30 min, 25 C, recombinant protein, residues 1-360, protein details: His (pET28a), label: 5'-biotin on sense strand
[2] = molecular target: OCT4 K222A (Homo sapiens) (UniProt Q01860); conditions: monomer, stronger than K222D; LightShift EMSA: 20 ul, 1.5 ug His-OCT4, 0.5 ug His-SOX2 where used, 50 nM biotin-dsDNA, 1 ul poly(dI-dC), 1x loading buffer (salt and pH not stated), 30 min, 25 C; recombinant protein; residues 1-360; protein details: His (pET28a); label: 5'-biotin on sense strand
OCT4 WT + SOX2 = conditions: heterodimer, reference for K222D; LightShift EMSA: 20 ul, 1.5 ug His-OCT4, 0.5 ug His-SOX2 where used, 50 nM biotin-dsDNA, 1 ul poly(dI-dC), 1x loading buffer (salt and pH not stated), 30 min, 25 C; recombinant protein; protein details: His (pET28a),His (pET28a); label: 5'-biotin on sense strand
[3] = molecular target: OCT4 K222R (Homo sapiens) (UniProt Q01860); conditions: monomer, stronger than K222D; LightShift EMSA: 20 ul, 1.5 ug His-OCT4, 0.5 ug His-SOX2 where used, 50 nM biotin-dsDNA, 1 ul poly(dI-dC), 1x loading buffer (salt and pH not stated), 30 min, 25 C; recombinant protein; residues 1-360; protein details: His (pET28a); label: 5'-biotin on sense strand
[4] = molecular target: OCT4 K222F (Homo sapiens) (UniProt Q01860); conditions: monomer, stronger than K222D; LightShift EMSA: 20 ul, 1.5 ug His-OCT4, 0.5 ug His-SOX2 where used, 50 nM biotin-dsDNA, 1 ul poly(dI-dC), 1x loading buffer (salt and pH not stated), 30 min, 25 C; recombinant protein; residues 1-360; protein details: His (pET28a); label: 5'-biotin on sense strand
OCT4 K222D + SOX2 = conditions: heterodimer, no obvious impact of the mutation; LightShift EMSA: 20 ul, 1.5 ug His-OCT4, 0.5 ug His-SOX2 where used, 50 nM biotin-dsDNA, 1 ul poly(dI-dC), 1x loading buffer (salt and pH not stated), 30 min, 25 C; recombinant protein; protein details: His (pET28a),His (pET28a); label: 5'-biotin on sense strand
OCT4 WT (Homo sapiens) = OCT4 WT (Homo sapiens) (UniProt Q01860); conditions: LightShift EMSA: 20 ul, 1.5 ug His-OCT4, 0.5 ug His-SOX2 where used, 50 nM biotin-dsDNA, 1 ul poly(dI-dC), 1x loading buffer (salt and pH not stated), 30 min, 25 C, recombinant protein, residues 1-360, protein details: His (pET28a), label: 5'-biotin on sense strand
[5] = monomer, lowest affinity of all variants

Question: Does “GTCTGGGTTACTCTGCAGCTACTTTTGCATTACAATGGCCTTGGTGAGACTGGTAGACG (double strand) [NANOG-SORE probe]” bind [1, 5]?
Answer: binds more weakly

Question: Does “GTCTGGGTTACTCTGCAGCTACTTTTGCATTACAATGGCCTTGGTGAGACTGGTAGACG (double strand) [NANOG-SORE probe]” bind [2]?
Answer: binds

Question: Does “GTCTGGGTTACTCTGCAGCTACTTTTGCATTACAATGGCCTTGGTGAGACTGGTAGACG (double strand) [NANOG-SORE probe]” bind (OCT4 WT + SOX2)?
Answer: binds

Question: Does “GTCTGGGTTACTCTGCAGCTACTTTTGCATTACAATGGCCTTGGTGAGACTGGTAGACG (double strand) [NANOG-SORE probe]” bind [3]?
Answer: binds

Question: Does “GTCTGGGTTACTCTGCAGCTACTTTTGCATTACAATGGCCTTGGTGAGACTGGTAGACG (double strand) [NANOG-SORE probe]” bind [4]?
Answer: binds

Question: Does “GTCTGGGTTACTCTGCAGCTACTTTTGCATTACAATGGCCTTGGTGAGACTGGTAGACG (double strand) [NANOG-SORE probe]” bind (OCT4 K222D + SOX2)?
Answer: binds

Question: Does “GTCTGGGTTACTCTGCAGCTACTTTTGCATTACAATGGCCTTGGTGAGACTGGTAGACG (double strand) [NANOG-SORE probe]” bind (OCT4 WT (Homo sapiens); monomer, stronger than K222D)?
Answer: binds

Question: Does “CCGTCTTCTTGGCAGACAGCAGAGAGATGCATGACAAAGGTGCCGTGATGGTTCTGTCC (double strand) [OCT4-SORE probe]” bind [1, 5]?
Answer: binds more weakly

Question: Does “CCGTCTTCTTGGCAGACAGCAGAGAGATGCATGACAAAGGTGCCGTGATGGTTCTGTCC (double strand) [OCT4-SORE probe]” bind [2]?
Answer: binds

Question: Does “CCGTCTTCTTGGCAGACAGCAGAGAGATGCATGACAAAGGTGCCGTGATGGTTCTGTCC (double strand) [OCT4-SORE probe]” bind (OCT4 WT + SOX2)?
Answer: binds

Question: Does “CCGTCTTCTTGGCAGACAGCAGAGAGATGCATGACAAAGGTGCCGTGATGGTTCTGTCC (double strand) [OCT4-SORE probe]” bind [3]?
Answer: binds

Question: Does “CCGTCTTCTTGGCAGACAGCAGAGAGATGCATGACAAAGGTGCCGTGATGGTTCTGTCC (double strand) [OCT4-SORE probe]” bind [4]?
Answer: binds

Question: Does “CCGTCTTCTTGGCAGACAGCAGAGAGATGCATGACAAAGGTGCCGTGATGGTTCTGTCC (double strand) [OCT4-SORE probe]” bind (OCT4 K222D + SOX2)?
Answer: binds

Question: Does “CCGTCTTCTTGGCAGACAGCAGAGAGATGCATGACAAAGGTGCCGTGATGGTTCTGTCC (double strand) [OCT4-SORE probe]” bind (OCT4 WT (Homo sapiens); monomer, stronger than K222D)?
Answer: binds

Question: Does “TGTGAAATACCCTGCCTCATGCATATGCAAATAACCTGAGGTCTTCTGAGATAAATATA (double strand) [MORE probe]” bind ([1]; homodimer, no obvious impact of the mutation)?
Answer: binds

Question: Does “TGTGAAATACCCTGCCTCATGCATATGCAAATAACCTGAGGTCTTCTGAGATAAATATA (double strand) [MORE probe]” bind (OCT4 WT (Homo sapiens); homodimer, reference for K222D)?
Answer: binds

Question: Does “TATACTAAGCAATTCTTCATTGATTTGAAATGCAAATTTGACTGGGCACCCTGTATCTT (double strand) [PORE probe]” bind ([1]; homodimer, minimally bound)?
Answer: binds more weakly

Question: Does “TATACTAAGCAATTCTTCATTGATTTGAAATGCAAATTTGACTGGGCACCCTGTATCTT (double strand) [PORE probe]” bind (OCT4 WT (Homo sapiens); homodimer, less than K222F)?
Answer: binds
